PubChem BioAssay AID504793, Drosophila RNAi Screening Center – 2011
In all, the deposit lists about 23,000 reagents; shown is an unselected part of those that have a named target and a result. In the full data, 62 (0.27%) are marked active. 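Calls come from follow-up tests whose scores are not deposited, so confirmed genes may have low counts here; counts are not normalised per plate.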 Raw values vary from plate to plate and are shown uncorrected. Unmarked entries are inactive. A plus sign joins genes that one reagent is predicted to hit.

Test: 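Genes required for cells to halt at G2/M after double-strand DNA breaks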 (primary screen)
Cell system: Drosophila S2R+ cells
Reagent: long dsRNA against Drosophila genes, about 0.25 µg dsRNA per well
Duration: 4 days of dsRNA, then 4 hours of drug before read-out
Challenge: doxorubicin 0.5 µM for 4 hours to cause double-strand breaks, in cells also given a low, harmless dose of dsRNA against nbs to sensitise the assay
Measurement: 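Per-well count of mitotic cells stained for phospho-histone H3 after doxorubicin exposure, used as mitotic index; counts are raw and not normalised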
Scale: mitotic cells: higher = more cells in mitosis, weaker G2 arrest
Rule for the call: 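a call needs confirmation in secondary tests, with other dsRNAs and a check of mitotic timing without damage, not just a high primary count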
Meaning of the calls: active = confirmed in follow-up tests; inactive = not confirmed

| gene | PubChem SID | mitotic cells, replicate 1 |
| --- | --- | --- |
| Npc2d | SID104194343 | 7 |
| Npc2d | SID104206555 | 6 |
| ry | SID104196840 | 6 |
| ry | SID104205943 | 4 |
| Rpt6 | SID104200363 | 6 |
| Rpt6 | SID104206477 | 12 |
| CG30275 | SID104183955 | 8 |
| CG34450 | SID104197614 | 9 |
| CG34450 | SID104203631 | 1 |
| Galphas | SID104184408 | 5 |
| CtsL3 | SID104191963 | 7 |
| CtsL3 | SID104205580 | 15 |
| CG10465 | SID104184640 | 8 |
| Lipt1 | SID104186975 | 2 |
| CG14961 | SID104188212 | 5 |
| Dh31 | SID104181988 | 6 |
| Pms2 | SID104187303 | 4 |
| Or1a | SID104198481 | 7 |
| Cyp12a4 | SID104196412 | 8 |
| Cyp12a4 | SID104203019 | 5 |
| CG4291 | SID104180442 | 5 |
| CG4291 | SID104206954 | 8 |
| Spn77Ba | SID104190485 | 8 |
| CG13047 | SID104189720 | 2 |
| CG13047 | SID104203637 | 5 |
| fl(2)d | SID104187412 | 4 |
| Zip48C | SID104186106 | 7 |
| OdsH | SID104200055 | 3 |
| Duox | SID104205753 | 8 |
| tbrd-1 | SID104194393 | 9 |
| CG15358 | SID104180180 | 9 |
| CG3610 | SID104195294 | 3 |
| CG3610 | SID104205883 | 8 |
| Rac1 | SID104188480 | 5 |
| Rac1 | SID104203677 | 2 |
| CG18789 | SID104182488 | 2 |
| 18w | SID104184821 | 3 |
| 18w | SID104208244 | 5 |
| lncRNA:CR42862 + CG33229 | SID104188289 | 3 |
| yellow-d2 | SID104184383 | 7 |
| CG5334 | SID104199733 | 16 |
| CG14710 | SID104194725 | 10 |
| Grip75 | SID104183129 | 12 |
| CG9706 | SID104190887 | 5 |
| CG14142 | SID104189937 | 4 |
| CG14142 | SID104205202 | 9 |
| foxo | SID104192809 | 16 |
| foxo | SID104195255 | 12 |
| Rpt5 | SID104196634 | 23 |
| Rpt5 | SID104204813 | 12 |
| PAN3 | SID104187982 | 7 |
| PAN3 | SID104203912 | 7 |
| CG33791 + CG12105 + CG18170 | SID104188179 | 9 |
| CG1544 | SID104194828 | 6 |
| CG7840 | SID104182867 | 5 |
| Ciao1 | SID104185962 | 7 |
| CG11504 | SID104194110 | 3 |
| sca | SID104187469 | 7 |
| sca | SID104208059 | 1 |
| CG33477 | SID104202291 | 9 |
| Syx1A | SID104195151 | 11 |
| Syx1A | SID104201269 | 9 |
| hng2 | SID104196204 | 1 |
| CG10209 | SID104185772 | 6 |
| CG34444 | SID104186227 | 7 |
| CG15143 | SID104182236 | 6 |
| Eaat1 | SID104183113 | 6 |
| spz | SID104196857 | 7 |
| spz | SID104207364 | 1 |
| spz | SID104216726 | 9 |
| CG33469 | SID104202259 | 11 |
| CG9649 | SID104196326 | 6 |
| CG9649 | SID104202789 | 10 |
| kri | SID104190307 | 5 |
| CG4949 | SID104199718 | 16 |
| lncRNA:CR32661 | SID104199586 | 7 |
| lncRNA:CR32661 | SID104206610 | 6 |
| drm | SID104180069 | 6 |
| CG10222 | SID104189506 | 10 |
| CG10222 | SID104206611 | 4 |
| ytr | SID104184098 | 7 |
| ytr | SID104201647 | 6 |
| ytr | SID104203954 | 6 |
| CG5089 | SID104186706 | 3 |
| CG5089 | SID104208633 | 4 |
| Sac1 | SID104188414 | 4 |
| Sac1 | SID104205430 | 7 |
| CG4080 | SID104190190 | 7 |
| achi | SID104187068 | 8 |
| achi | SID104203409 | 12 |
| Rdl | SID104191056 | 11 |
| Rdl | SID104206240 | 5 |
| Grip84 | SID104200040 | 84 |
| Grip84 | SID104204746 | 101 |
| SrpRalpha | SID104200043 | 9 |
| rempA | SID104180119 | 6 |
| CG7806 | SID104182863 | 3 |
| CG14839 | SID104194755 | 12 |
| CG14839 | SID104205851 | 8 |
| Rpn2 | SID104196631 | 32 |
| CG10428 | SID104181846 | 3 |
| tex | SID104196309 | 8 |
| RhoL | SID104196616 | 6 |
| RhoL | SID104202841 | 3 |
| CG34386 | SID104186260 | 9 |
| CG34386 | SID104202591 | 8 |
| CG34386 | SID104208141 | 5 |
| bchs | SID104182918 | 6 |
| flfl | SID104196266 | 16 |
| VhaAC39-1 | SID104198034 | 8 |
| VhaAC39-1 | SID104206152 | 6 |

Entries listed so far whose target name starts with A or a:
| gene | PubChem SID | mitotic cells, replicate 1 |
| --- | --- | --- |
| achi | SID104187068 | 8 |
| achi | SID104203409 | 12 |
